{
  "source": "patent US20170096701",
  "key": {"[1]": {"molecular_target": "T1, T5 exonuclease (UniProt P06229)", "T1 sequence (looked up, limits assumed)": "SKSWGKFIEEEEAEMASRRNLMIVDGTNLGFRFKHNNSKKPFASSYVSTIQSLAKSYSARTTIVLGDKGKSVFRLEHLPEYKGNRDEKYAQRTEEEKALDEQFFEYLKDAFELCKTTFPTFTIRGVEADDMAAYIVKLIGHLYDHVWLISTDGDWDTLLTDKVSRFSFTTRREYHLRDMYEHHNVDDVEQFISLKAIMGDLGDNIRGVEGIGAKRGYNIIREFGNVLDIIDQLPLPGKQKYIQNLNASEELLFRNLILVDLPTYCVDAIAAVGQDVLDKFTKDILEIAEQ", "test": "enzyme reaction in vitro", "settings": "dabcyl-dT at position 29, fluorescein-dT at position 55 [29 dabcyl-dT, 55 fluorescein-dT], purified recombinant protein, protein details: NEB, label: fluorescein/dabcyl"}, "[2]": {"system": "DNA gyrase (Escherichia coli)", "test": "binding assay", "settings": "dabcyl-dT at position 29, fluorescein-dT at position 55 [29 dabcyl-dT; 55 fluorescein-dT]; ATP-dependent supercoiling, relatively slow; 4 mM MgCl2, 1.75 mM ATP, 37 C; inhibited by novobiocin (IC50 0.48 uM) and ciprofloxacin (IC50 […]); purified recombinant protein; protein details: New England Biolabs; label: fluorescein/dabcyl; letters built from the parent sequence and the stated change"}, "[3]": {"system": "Nt.BbvCI nicking endonuclease", "test": "enzyme reaction in vitro", "settings": "dabcyl-dT at position 29, fluorescein-dT at position 55 [29 dabcyl-dT; 55 fluorescein-dT]; nicking half-life of supercoiled plasmid followed by FRET; purified recombinant protein; protein details: New England Biolabs; label: fluorescein/dabcyl; letters built from the parent sequence and the stated change"}, "[4]": {"molecular_target": "T2, DNA topoisomerase I (Escherichia coli) (UniProt P06612)", "T2 sequence (looked up, limits assumed)": "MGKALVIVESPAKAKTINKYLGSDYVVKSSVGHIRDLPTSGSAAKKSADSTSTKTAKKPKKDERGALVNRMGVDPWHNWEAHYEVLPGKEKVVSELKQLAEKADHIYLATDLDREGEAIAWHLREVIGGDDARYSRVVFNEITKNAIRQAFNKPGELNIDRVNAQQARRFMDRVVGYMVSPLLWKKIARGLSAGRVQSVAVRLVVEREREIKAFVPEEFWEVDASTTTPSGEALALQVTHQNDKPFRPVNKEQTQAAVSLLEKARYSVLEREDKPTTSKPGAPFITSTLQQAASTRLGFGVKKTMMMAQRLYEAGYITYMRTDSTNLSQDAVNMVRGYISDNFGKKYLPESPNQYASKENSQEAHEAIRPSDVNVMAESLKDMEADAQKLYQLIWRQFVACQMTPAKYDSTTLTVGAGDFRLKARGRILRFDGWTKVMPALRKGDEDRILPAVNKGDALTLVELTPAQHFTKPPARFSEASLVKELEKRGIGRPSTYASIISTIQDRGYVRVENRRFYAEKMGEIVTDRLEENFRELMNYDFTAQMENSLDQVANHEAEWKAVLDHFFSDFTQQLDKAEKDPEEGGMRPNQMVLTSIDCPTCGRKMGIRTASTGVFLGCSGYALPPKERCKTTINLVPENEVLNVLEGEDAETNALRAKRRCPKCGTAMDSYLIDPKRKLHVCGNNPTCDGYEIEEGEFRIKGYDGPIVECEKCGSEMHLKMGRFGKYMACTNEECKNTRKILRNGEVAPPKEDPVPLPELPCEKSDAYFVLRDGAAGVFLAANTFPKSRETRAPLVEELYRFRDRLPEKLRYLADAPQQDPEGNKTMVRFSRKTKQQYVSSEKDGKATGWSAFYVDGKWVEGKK", "test": "binding assay", "settings": "dabcyl-dT at position 29, fluorescein-dT at position 55 [29 dabcyl-dT; 55 fluorescein-dT]; rapid relaxation by large amounts of enzyme, FRET kinetics; purified recombinant protein; protein details: purified as described previously; label: fluorescein/dabcyl; letters built from the parent sequence and the stated change"}},
  "note": "For part of these data: No signal at the amounts used counts as a negative. For part of these data: Protein sequences can lack the tags named with them. For part of these data: The exact form of at least one protein or probe is not confirmed.",
  "data": [
    {"sequence": "TCAGCCCGACAGCACGAGACGATATATATATATATATATATATATATATATATATATATATATGGGCCAACCAACCAGCCCC [FL905 oligomer]", "values": [
      {"measurement": "activity on this sequence", "setting": "[1]; digests single-stranded FL905, single-stranded DNA, letters built from the parent sequence and the stated …", "result": "active"}
    ]},
    {"sequence": "TCAGCCCGACAGCACGAGACGATATATATATATATATATATATATATATATATATATATATATGGGCCAACCAACCAGCCCC [relaxed pAB1_FL905]", "values": [
      {"measurement": "activity on this sequence", "setting": "[1]; does not degrade relaxed plasmid, letters built from the parent sequence and the stated change", "result": "not active"},
      {"measurement": "binding result", "setting": "[2]", "result": "binds"}
    ]},
    {"sequence": "TCAGCCCGACAGCACGAGACGATATATATATATATATATATATATATATATATATATATATATGGGCCAACCAACCAGCCCC [supercoiled pAB1_FL905]", "values": [
      {"measurement": "activity on this sequence", "setting": "[3]", "result": 15, "unit": "s"},
      {"measurement": "activity on this sequence", "setting": "[1]; does not degrade supercoiled plasmid, letters built from the parent sequence and the stated change", "result": "not active"},
      {"measurement": "binding result", "setting": "[4]", "result": "binds"}
    ]}
  ]
}
